Laboratory results: the supplement of paper PMC4604168 (melanoma cell lines)
Some of the results follow. Many values rest on one well or one pass, so single values are uncertain.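 Cells were imaged in 1,536-well plates, and nuclei stained with an antibody against cleaved PARP were counted against all DNA-stained nuclei to give the apoptosis fraction. Screening doses were chosen to leave most cells alive, and resting and induced cleaved-PARP levels differ strongly between cell lines.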

Tested on: G361
Test: cleaved PARP positive nuclei fraction relative to DMSO control; melanoma cells; higher = more apoptosis
Details: library dose: low library concentration; 72 h

SMILES	cleaved PARP positive nuclei fraction
C[C@@H]1CCN(C(=O)CC#N)C[C@@H]1N(C)c1ncnc2[nH]ccc12 + c1cc(-c2cnn3cc(-c4ccc(OCCN5CCCCC5)cc4)cnc23)ccn1 [Dorsomorphin] (first compound 1 µM, partner dose 0.4 µM)	32.8%
NC(=O)Nc1cc(-c2cccc(F)c2)sc1C(=O)N[C@H]1CCCNC1 + O=S(=O)(c1ccccc1)N(CC(F)(F)F)c1ccc(C(O)(C(F)(F)F)C(F)(F)F)cc1 [T0901317] (first compound 0.02 µM, partner dose 1.4 µM)	67.6%
O=C(Nc1cccc(Cl)c1)Nc1ncc(CCNc2ncnc3ccsc23)s1 + COc1cc(N2CCC(N3CCN(C)CC3)CC2)ccc1Nc1ncc(Cl)c(Nc2ccccc2S(=O)(=O)C(C)C)n1 [NVP-TAE684] (first compound 0.0008 µM, partner dose 0.08 µM)	177%
C[C@]1(c2nc3c(C(N)=O)cccc3[nH]2)CCCN1 [Veliparib] + O=S(=O)(c1ccccc1)N(CC(F)(F)F)c1ccc(C(O)(C(F)(F)F)C(F)(F)F)cc1 [T0901317] (first compound 1.4 µM, partner dose 1.4 µM)	32.7%
Cc1nc(Nc2ncc(C(=O)Nc3c(C)cccc3Cl)s2)cc(N2CCN(CCO)CC2)n1 [dasatanib] + CCc1ccc(CCOc2ccc(CC3SC(=O)NC3=O)cc2)nc1 [pioglitazone] (first compound 0.004 µM, partner dose 2 µM)	106%
CC1(C)NC(=O)N(c2ccc([N+](=O)[O-])c(C(F)(F)F)c2)C1=O [nilutamide] + O=c1cc(-c2cccc3c2Sc2ccccc2S3)oc(N2CCOCC2)c1 [KU55933] (first compound 1 µM, partner dose 1 µM)	83.4%
COc1cc(Nc2ncc(F)c(Nc3ccc4c(n3)NC(=O)C(C)(C)O4)n2)cc(OC)c1OC [Tamatinib] + Oc1nc(-c2ccc(C(F)(F)F)cc2)nc2c1CSCC2 [XAV939] (first compound 0.4 µM, partner dose 2 µM)	75%
O=C(CCCCCCC(=O)Nc1ccccc1)NO [vorinostat] + O=C(O)C(=O)Nc1sc2c(c1C(=O)O)CCNC2 [TCS401] (first compound 0.08 µM, partner dose 1.66667 µM)	142%
